Measurements reported in PubChem BioAssay AID1671195 (Yale University, 2021)

Assay: 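Regulators of LDL receptor activity judged by labelled LDL uptake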 (primary screen)
Cell system: human Huh7 hepatoma cells
Reagents: siRNA pool against human genes, 18 nM
Duration: about 2 to 2.5 days of knockdown, then 8 h LDL uptake
Challenge: DiI-labelled LDL at 30 µg/ml for 8 h, in lipoprotein-deficient serum medium
Measured: 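Fluorescent LDL signal imaged in cells, scaled to the plate median, robust z-score for each replicate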
Reading the numbers: robust z-score: higher = more LDL uptake after knockdown
Call rule: 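Active when two or more replicates show a robust z-score above 2 or below -2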
The deposit covers about 22,000 reagents; below is a part drawn at random. About 1,510 of all reagents (6.9%) count as active. 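Active includes knockdowns raising or lowering LDL uptake; positive z-scores mean more uptake, negative mean less.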

no.	Target gene	robust z-score, replicate 1	robust z-score, replicate 2	robust z-score, replicate 3	outcome
1	CATSPERT	0.508	0.0407	-0.152	inactive
2	SCARA3	0.886	-0.0617	0.325	inactive
3	LRP11	-0.0643	0.426	-0.0154	inactive
4	DPF2	0.47	0.93	-0.247	inactive
5	FLJ44796 (retired record)	0.226	0.0845	0.407	inactive
6	WDR97	0.0362	0.0526	0.633	inactive
7	FBRSL1	1.25	0.0648	0.202	inactive
8	OR1L3	-0.729	-1.23	-2.8	inactive
9	TMEM270	3.08	2.74	2.05	active
10	PRADC1	2.71	2.71	2.25	active
11	MFSD2A	0.886	1.39	1.09	inactive
12	LOC107985476	0.385	0.736	0.129	inactive
13	KLHDC3	-0.952	-0.825	-0.818	inactive
14	ERP27	-1.15	-0.493	0.141	inactive
15	PRRX2	2.46	5.95	3.31	active
16	LINC01020	0.152	0.115	0.218	inactive
17	LINC01226	-0.925	-0.975	-0.9	inactive
18	WASL	-1.05	1.1	-0.316	inactive
19	GNA15	0.355	0.79	1.34	inactive
20	PUM2	0.24	0.148	0.754	inactive
21	SLC4A7	0.0929	-0.216	0.261	inactive
22	MKLN1	-0.172	-1.28	-0.113	inactive
23	SH3D19	-0.876	-1.12	-0.425	inactive
24	JAK1	-2.02	-1.83	-1.88	inactive
25	MICAL1	0.0522	-0.00546	-0.154	inactive
26	PRPH	2.33	2.62	1.33	active
27	RHOBTB3	1.5	0.0609	-0.73	inactive
28	OR4C13	-0.0893	-0.0728	-0.123	inactive
29	LOC440116 (retired record)	0.0259	-0.33	-0.316	inactive
30	TRAPPC10	0.89	0.28	0.648	inactive
31	LOC441095 (retired record)	-1.29	-1.63	-1.25	inactive
32	SYT11	-1.57	-1.79	-1.12	inactive
33	ACAA1	-0.52	-0.417	-0.595	inactive
34	DEPP1	1.4	0.92	0.679	inactive
35	LOC389858 (retired record)	0.026	-0.158	-0.0571	inactive
36	LOC440036 (retired record)	0.394	1.22	0.232	inactive
37	AMELX	-0.361	-1.76	-1.36	inactive
38	ASNSP1	2.5	3.14	3.3	active
39	CXADR	3.47	3	3.33	active
40	AGA	0.505	-2.24	0.614	inactive
41	INSM2	0.543	0.926	1.29	inactive
42	SPINK4	0.223	-0.451	-0.287	inactive
43	NR0B1	-0.834	1	-0.701	inactive
44	TAPBPL	-0.2	-1.5	0.163	inactive
45	ALG10B	0.435	0.126	-0.108	inactive
46	DNAJC10	-1.38	-1.13	-1.75	inactive
47	YBX1	1.18	0.7	1.24	inactive
48	H2BC5	2.18	1.12	1.71	inactive
49	SRP68	-1.11	-0.811	-0.0652	inactive
50	F3	-1.5	-1.71	-1.53	inactive
51	LINC01558	0.562	0.631	-0.91	inactive
52	LMOD3	-2.44	-2.94	-0.895	active
53	CA8	-0.559	-0.4	-0.8	inactive
54	MLLT3	0.881	0.922	1.26	inactive
55	RPP14	-0.672	-1.29	-0.675	inactive
56	AP5S1	-0.944	1.33	0.0494	inactive
57	CCT6B	0.102	0.26	-0.0833	inactive
58	LAP3P2	-1.31	-1.79	-1.37	inactive
59	HERC4	-1.09	0.0913	1.26	inactive
60	HHIPL2	-1.49	-1.53	-1.05	inactive
61	CCSER1	-0.51	-0.81	-0.289	inactive
62	CISD1P1	-0.387	-0.341	-1.61	inactive
63	DYRK4	-2.46	-1.96	-2.59	active
64	MSGN1	0.844	1.56	1.46	inactive
65	KLHL7	-1.54	-2.47	-2.13	active
66	TCEA3	0.724	0.19	0.598	inactive
67	WNK3	-1.02	-0.858	-0.656	inactive
68	S100PBP	-0.555	-0.181	-0.841	inactive

11 successive reagents from above:
no.	Target gene	robust z-score, replicate 1	robust z-score, replicate 2	robust z-score, replicate 3	outcome
50	F3	-1.5	-1.71	-1.53	inactive
51	LINC01558	0.562	0.631	-0.91	inactive
52	LMOD3	-2.44	-2.94	-0.895	active
53	CA8	-0.559	-0.4	-0.8	inactive
54	MLLT3	0.881	0.922	1.26	inactive
55	RPP14	-0.672	-1.29	-0.675	inactive
56	AP5S1	-0.944	1.33	0.0494	inactive
57	CCT6B	0.102	0.26	-0.0833	inactive
58	LAP3P2	-1.31	-1.79	-1.37	inactive
59	HERC4	-1.09	0.0913	1.26	inactive
60	HHIPL2	-1.49	-1.53	-1.05	inactive
